Consider one substance from article PMC7063047.

The chains behind the UniProt entries cited, without tags or fusion partners. Where a name states a change or a piece, a line headed by the entry shows the natural chain unless it says otherwise. A line that says so, or that is headed by a name, gives the form on record, which may keep a tag or linker.
endogenous USP9X (Q93008-3, form named): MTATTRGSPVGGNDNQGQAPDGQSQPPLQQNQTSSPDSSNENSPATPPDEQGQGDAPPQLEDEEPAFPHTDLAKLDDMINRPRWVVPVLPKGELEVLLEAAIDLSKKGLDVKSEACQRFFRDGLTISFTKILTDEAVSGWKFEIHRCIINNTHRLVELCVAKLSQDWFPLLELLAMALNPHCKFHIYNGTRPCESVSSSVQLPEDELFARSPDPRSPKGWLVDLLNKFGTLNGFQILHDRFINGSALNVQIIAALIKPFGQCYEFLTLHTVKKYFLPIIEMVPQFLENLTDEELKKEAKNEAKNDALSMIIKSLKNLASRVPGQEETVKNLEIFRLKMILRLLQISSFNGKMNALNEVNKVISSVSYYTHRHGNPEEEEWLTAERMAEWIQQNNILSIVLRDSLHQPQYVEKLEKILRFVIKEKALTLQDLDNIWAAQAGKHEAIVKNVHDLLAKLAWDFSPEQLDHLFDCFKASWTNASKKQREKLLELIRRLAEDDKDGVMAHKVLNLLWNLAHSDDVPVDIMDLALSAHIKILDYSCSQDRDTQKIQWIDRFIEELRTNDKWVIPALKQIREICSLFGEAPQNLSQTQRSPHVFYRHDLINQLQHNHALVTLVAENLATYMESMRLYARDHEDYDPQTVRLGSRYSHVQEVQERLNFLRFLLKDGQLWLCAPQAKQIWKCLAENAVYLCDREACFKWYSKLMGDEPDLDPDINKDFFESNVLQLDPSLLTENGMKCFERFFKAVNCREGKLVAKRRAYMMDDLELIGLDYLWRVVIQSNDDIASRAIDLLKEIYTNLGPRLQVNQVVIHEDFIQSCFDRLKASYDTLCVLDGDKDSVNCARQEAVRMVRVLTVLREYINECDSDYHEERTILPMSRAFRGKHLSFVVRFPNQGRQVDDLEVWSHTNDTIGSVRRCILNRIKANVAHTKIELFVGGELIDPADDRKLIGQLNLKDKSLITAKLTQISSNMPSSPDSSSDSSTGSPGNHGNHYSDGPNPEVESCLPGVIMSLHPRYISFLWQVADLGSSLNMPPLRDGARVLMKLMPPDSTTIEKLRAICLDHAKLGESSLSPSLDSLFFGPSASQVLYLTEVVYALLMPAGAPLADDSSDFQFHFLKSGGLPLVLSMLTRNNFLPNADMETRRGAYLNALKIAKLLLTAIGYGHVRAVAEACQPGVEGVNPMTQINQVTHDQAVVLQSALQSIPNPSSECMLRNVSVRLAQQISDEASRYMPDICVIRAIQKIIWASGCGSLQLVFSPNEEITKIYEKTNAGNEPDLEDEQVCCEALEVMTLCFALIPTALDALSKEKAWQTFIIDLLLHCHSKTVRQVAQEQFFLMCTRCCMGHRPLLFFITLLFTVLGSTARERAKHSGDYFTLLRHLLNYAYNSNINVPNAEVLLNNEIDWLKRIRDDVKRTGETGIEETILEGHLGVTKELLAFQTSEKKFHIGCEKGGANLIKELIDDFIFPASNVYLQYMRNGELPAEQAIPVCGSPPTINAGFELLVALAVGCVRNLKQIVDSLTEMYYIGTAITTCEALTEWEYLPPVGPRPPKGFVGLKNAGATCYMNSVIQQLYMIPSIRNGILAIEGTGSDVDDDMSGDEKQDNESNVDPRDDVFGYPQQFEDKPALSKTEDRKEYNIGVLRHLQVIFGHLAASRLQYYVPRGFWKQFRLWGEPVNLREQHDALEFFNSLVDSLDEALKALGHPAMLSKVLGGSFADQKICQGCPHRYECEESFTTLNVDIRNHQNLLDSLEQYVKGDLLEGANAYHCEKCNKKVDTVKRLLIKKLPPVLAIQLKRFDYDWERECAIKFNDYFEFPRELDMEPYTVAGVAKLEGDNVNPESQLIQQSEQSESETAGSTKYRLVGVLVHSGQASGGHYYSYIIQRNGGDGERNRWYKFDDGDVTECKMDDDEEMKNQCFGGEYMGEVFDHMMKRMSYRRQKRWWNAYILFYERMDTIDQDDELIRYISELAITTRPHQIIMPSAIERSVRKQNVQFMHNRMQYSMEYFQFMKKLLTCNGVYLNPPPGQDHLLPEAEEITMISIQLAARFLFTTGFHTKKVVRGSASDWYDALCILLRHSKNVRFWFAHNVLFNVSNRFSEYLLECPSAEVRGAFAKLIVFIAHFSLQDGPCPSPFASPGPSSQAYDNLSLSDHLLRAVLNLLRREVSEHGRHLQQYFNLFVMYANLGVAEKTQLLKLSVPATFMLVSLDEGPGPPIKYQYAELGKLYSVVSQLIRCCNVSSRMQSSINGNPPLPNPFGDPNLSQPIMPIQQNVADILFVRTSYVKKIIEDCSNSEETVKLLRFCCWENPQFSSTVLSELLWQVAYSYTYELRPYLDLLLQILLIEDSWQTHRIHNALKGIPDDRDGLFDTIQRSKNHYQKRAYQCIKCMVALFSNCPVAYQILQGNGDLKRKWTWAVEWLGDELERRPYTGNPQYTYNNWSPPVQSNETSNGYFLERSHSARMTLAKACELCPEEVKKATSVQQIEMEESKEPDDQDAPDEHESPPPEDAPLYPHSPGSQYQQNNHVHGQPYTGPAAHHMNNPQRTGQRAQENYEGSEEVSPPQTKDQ

These are yes or no findings as the source states them, for the method shown. Binding seen in cells or lysates may run through a third protein. These calls come from enrichment with a bait or labelling near it, and not all partners need be listed. Sequences can lack the tags named with a protein.

This test has as its target T1, FLAG-tagged CDC14B (human) (UniProt O60729).
T1 sequence: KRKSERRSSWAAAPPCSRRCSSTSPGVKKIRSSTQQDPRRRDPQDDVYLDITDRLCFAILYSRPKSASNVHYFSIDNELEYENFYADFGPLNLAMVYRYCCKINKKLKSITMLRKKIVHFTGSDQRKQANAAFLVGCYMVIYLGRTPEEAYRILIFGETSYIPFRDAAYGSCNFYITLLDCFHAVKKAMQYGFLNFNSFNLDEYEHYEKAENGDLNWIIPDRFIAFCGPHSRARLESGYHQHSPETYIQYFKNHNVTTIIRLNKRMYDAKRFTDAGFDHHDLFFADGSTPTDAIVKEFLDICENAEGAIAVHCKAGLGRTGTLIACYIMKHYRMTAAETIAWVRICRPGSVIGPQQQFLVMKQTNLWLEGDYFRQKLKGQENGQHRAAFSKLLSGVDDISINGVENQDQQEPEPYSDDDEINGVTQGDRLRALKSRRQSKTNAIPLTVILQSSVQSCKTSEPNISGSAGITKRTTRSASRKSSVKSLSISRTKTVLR
Put plainly: affinity purification with mass spectrometry; CDC14B interactomes from unsynchronized and G2/M-enriched cells compared; affinity purification from lysate (Tris/HCl pH 7.5 50 mM, NaCl 150 mM, NP40 0.1%), LC-MS/MS.

Turning to “endogenous USP9X (from UniProt Q93008-3 1-2570) (enzyme)”, the binding result is recorded as “binds”.
